From patent US20050215529A1, “Method of treating oxidative stress-associated conditions with isopentenyl diphosphate” (THE REGENTS OF THE UNIVERSITY OF MICHIGAN, priority 2004, published 2005)
At least one compound was matched to its structure with a doubt left.

Tested on: human fibroblastoid M1 cells
Assay: Comet assay, protection against H2O2-induced DNA damage
Assay type: cell-based
Conditions: various concentrations, 100 μM H2O2
Experimental: A single-cell gel electrophoresis (SCGE) assay, known as the “Comer” assay was performed to detect/quantify DNA damage by identifying DNA-strand breakage in individual cells, for example. The assay was performed using a kit commercially-available from Trevigen, Inc., of Gaithersburg, Md., as “CometAssay™.” See P. J. McCarthy et al. (1997) Mutagenesis 12:209-214; A. R. Collins et al. (2001) Biochem. Soc. Trans. 29:337-341. Sub-confluent cells were washed with phosphate buffered saline (PBS) and detached from the tissue culture flasks using a 0.05% trypsin solution. After centrifugation, the cells were washed and re-suspended in serum-free DMEM medium. […]
The slides were placed at 4° C. in the dark for ten minutes and subsequently immersed in pre-chilled Lysis Solution at 4° C. for an additional thirty minutes. […] Comet tail fluorescence intensity was quantified with a Diagnostic Instruments digitized camera, mounted on a Nikon Eclipse E400 microscope, using Scion Image software. Quantification of comet fluorescence was performed as described in P. J. McCarthy et al. (1997) Mutagenesis 12:209-214. […] The data are shown either in arbitrary fluorescent units, or as % DNA damage protection (i.e., the percent decrement in tail fluorescence intensity with test reagent, relative to the intensity recorded in cells treated with hydrogen peroxide only)±S.E.M. […]

Structure (SMILES): CC(C)=CCC/C(C)=C/CC/C(C)=C/CO[P@@](=O)(O)OP(=O)(O)O (stereo in doubt) [FPP, farnesyl diphosphate]
- triggering of DNA damage protection: completely devoid of such activity

Structure (SMILES): C=C[C@@]1(C)CC(=O)[C@]2(O)[C@@]3(C)[C@@H](O)CCC(C)(C)[C@@H]3[C@H](O)[C@H](OC(C)=O)[C@@]2(C)O1 [forskolin]
- triggering of DNA damage protection: produced similar protection against oxidative DNA damage
